This note sets out measurements from PMC7099064.

Chains of the proteins cited; added tags and fusions are not shown.
UniProt Q6Q629: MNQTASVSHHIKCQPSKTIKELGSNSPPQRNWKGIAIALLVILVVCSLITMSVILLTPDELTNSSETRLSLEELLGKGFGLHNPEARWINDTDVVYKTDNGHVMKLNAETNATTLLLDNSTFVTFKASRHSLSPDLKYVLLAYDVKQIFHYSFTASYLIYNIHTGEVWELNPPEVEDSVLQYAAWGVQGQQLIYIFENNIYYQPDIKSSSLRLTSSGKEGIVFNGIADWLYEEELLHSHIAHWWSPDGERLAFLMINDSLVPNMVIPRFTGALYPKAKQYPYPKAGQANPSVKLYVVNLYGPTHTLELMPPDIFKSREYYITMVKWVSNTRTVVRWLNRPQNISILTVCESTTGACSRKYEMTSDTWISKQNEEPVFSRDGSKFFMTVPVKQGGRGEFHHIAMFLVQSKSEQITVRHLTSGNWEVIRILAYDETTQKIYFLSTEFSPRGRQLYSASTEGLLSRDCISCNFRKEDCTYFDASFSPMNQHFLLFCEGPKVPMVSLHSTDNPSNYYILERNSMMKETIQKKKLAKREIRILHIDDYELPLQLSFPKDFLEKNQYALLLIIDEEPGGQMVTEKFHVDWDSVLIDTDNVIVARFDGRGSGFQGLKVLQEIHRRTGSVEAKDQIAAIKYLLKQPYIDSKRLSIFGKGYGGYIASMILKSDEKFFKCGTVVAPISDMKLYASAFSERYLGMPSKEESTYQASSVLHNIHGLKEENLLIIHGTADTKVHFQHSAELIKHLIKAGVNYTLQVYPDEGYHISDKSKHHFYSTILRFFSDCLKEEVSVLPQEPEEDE

The assay concerns the target T1, TAP-tagged Kv4.2 (lentivirally expressed in cultured hippocampal neurons) (UniProt Q9NZV8).
T1 sequence: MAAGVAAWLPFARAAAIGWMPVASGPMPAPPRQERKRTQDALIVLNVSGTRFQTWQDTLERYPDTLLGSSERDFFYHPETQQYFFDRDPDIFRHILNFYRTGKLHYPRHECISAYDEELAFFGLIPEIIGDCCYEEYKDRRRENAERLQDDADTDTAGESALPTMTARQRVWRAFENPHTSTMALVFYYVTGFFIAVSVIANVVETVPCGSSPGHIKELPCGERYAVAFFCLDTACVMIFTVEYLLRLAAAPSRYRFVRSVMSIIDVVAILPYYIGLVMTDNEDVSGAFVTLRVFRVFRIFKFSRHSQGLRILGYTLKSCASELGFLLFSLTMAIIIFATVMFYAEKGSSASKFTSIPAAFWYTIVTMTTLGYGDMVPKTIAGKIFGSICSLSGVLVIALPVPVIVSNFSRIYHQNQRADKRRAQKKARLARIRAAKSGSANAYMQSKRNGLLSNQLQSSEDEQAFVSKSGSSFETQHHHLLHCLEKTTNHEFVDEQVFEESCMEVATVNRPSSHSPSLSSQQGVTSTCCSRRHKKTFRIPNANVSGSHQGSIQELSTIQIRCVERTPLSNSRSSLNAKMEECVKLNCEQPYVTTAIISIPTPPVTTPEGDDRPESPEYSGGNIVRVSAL
The assay is described as follows: affinity purification with mass spectrometry; TAP-tagged Kv4.2 expressed by lentivirus in cultured hippocampal neurons, harvested at DIV14, TAP purification kit (Agilent), SDS-PAGE, in-gel trypsin digestion, MS; control IRES-GFP lentivirus.

No constants are given. Whether binding was seen depends on the method and setting. In cells and extracts the contact can be indirect. A yes stands for co-enrichment or nearness to the bait. Other partners may have been found. Tags and fused reporters may be left off the sequences shown.

In the case of “dipeptidyl peptidase 10 (DPP10), endogenous in cultured hippocampal neurons (from UniProt Q6Q629 1-796)”, the binding entry is “binds”.

B1: K+ channel interacting protein 2 (KChIP2), endogenous in cultured hippocampal neurons (protein, UniProt Q9JM59 1-270)
chain: MRGQGRKESLSESRDLDGSYDQLTGHPPGPSKKALKQRFLKLLPCCGPQALPSVSETLAAPASLRPHRPRPLDPDSVEDEFELSTVCHRPEGLEQLQEQTKFTRRELQVLYRGFKNECPSGIVNEENFKQIYSQFFPQGDSSNYATFLFNAFDTNHDGSVSFEDFVAGLSVILRGTIDDRLSWAFNLYDLNKDGCITKEEMLDIMKSIYDMMGKYTYPALREEAPREHVESFFQKMDRNKDGVVTIEEFIESCQQDENIMRSMQLFDNVI
Regarding B1, the binding entry was “binds”.

B2: K+ channel interacting protein 3 (KChIP3), endogenous in cultured hippocampal neurons (protein, UniProt Q9JM47 1-256)
chain: MQRTKEAMKASDGSLLGDPGRIPLSKREGIKWQRPRFTRQALMRCCLIKWILSSAAPQGSDSSDSELELSTVRHQPEGLDQLQAQTKFTKKELQSLYRGFKNECPTGLVDEDTFKLIYSQFFPQGDATTYAHFLFNAFDADGNGAIHFEDFVVGLSILLRGTVHEKLKWAFNLYDINKDGYITKEEMLAIMKSIYDMMGRHTYPILREDAPLEHVERFFQKMDRNQDGVVTIDEFLETCQKDENIMSSMQLFENVI
On to B2, for which the binding entry is “binds”.

B3: K+ channel interacting protein 4 (KChIP4), endogenous in cultured hippocampal neurons (protein, UniProt Q99MG9 1-250)
chain: MNVRRVESISAQLEEASSTGGFLYAQNNTKRSIKERLMKLLPCSAAKTSSPAIQNSVEDELEMATVRHRPEALELLEAQSKFTKKELQILYRGFKNECPSGVVNEETFKEIYSQFFPQGDSTTYAHFLFNAFDTDHNGAVSFEDFIKGLSILLRGTVQEKLNWAFNLYDINKDGYITKEEMLDIMKAIYDMMGKCTYPVLKEDAPRQHVETFFQKMDKNKDGVVTIDEFIESCQKDENIMRSMQLFENVI
Consider B3, for which the binding entry is “binds”.
